Source: the supplement of paper PMC3334620
The full ranking holds about 33,000 sequences; the median of “E-score (-0.5 to 0.5)” is about -0.0014, and the highest 2% start at about 0.25. This is one part of the list.

target: T1, Cad1 (UniProt P24813); experiment: PBM E-score (8-mer binding enrichment) (E-score (-0.5 to 0.5)); higher = stronger / more preferred TF binding; conditions: protein concentration: 100 nM; construct: GST-full length
T1 sequence: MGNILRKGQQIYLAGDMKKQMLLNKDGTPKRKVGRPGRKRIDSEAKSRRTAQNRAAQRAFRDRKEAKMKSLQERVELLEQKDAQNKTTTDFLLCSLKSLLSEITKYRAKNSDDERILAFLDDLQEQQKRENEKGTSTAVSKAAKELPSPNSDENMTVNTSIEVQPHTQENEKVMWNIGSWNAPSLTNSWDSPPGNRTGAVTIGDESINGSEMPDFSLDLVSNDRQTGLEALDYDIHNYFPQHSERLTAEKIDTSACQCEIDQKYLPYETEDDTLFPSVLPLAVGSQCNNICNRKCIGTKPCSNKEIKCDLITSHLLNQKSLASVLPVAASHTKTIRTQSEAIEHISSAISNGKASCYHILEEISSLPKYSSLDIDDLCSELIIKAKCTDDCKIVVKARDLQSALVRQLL
In short: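 Universal all-10-mer Agilent arrays, double-stranded by primer extension on fresh or once-stripped slides, were probed with about 100-200 nM GST-tagged yeast transcription factors made by PURExpress. Fluorescent anti-GST detected bound protein, and masliner normalised the scans. E-scores from the Universal PBM Analysis Suite were given to each ungapped eight-base word pooled with its reverse complement.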

| Sequence | PBM E-score |
| --- | --- |
| GTTATTCA | 0.251 |
| CAAAATAC | 0.115 |
| CCAATTGA | 0.0388 |
| GCCCTCCC | -0.19 |
| AGCGATAT | 0.186 |
| AACCCATC | -0.0566 |
| CCCGTAAG | -0.11 |
| ACCATTTC | 0.136 |
| GTAGTGTA | 0.00401 |
| CCTCTTTA | -0.0933 |
| ATGGACAT | 0.095 |
| ATTATTGG | 0.137 |
| GCTAAAGC | -0.0728 |
| CCTAGATC | -0.142 |
| GCGAGCCA | -0.0639 |
| CAGATCGG | -0.0566 |
| CGTACAGC | -0.105 |
| ACTCTGCA | 0.0197 |
| CTACAAAG | 0.014 |
| CATGTCCA | -0.0586 |
| CTACCCAA | 0.116 |
| GTCGCGCA | 0.069 |
| CATTCAGC | 0.025 |
| AAGGGCAA | 0.0155 |
| ATACCCCG | -0.024 |

Quoted from the listing:
Entry for CGTACAGC under PBM E-score: -0.105
Entry for CTACCCAA under PBM E-score: 0.116
Entry for CAGATCGG under PBM E-score: -0.0566
Entry for GTCGCGCA under PBM E-score: 0.069
Entry for ACCATTTC under PBM E-score: 0.136
Entry for CCTCTTTA under PBM E-score: -0.0933
Entry for ATACCCCG under PBM E-score: -0.024

(cont.)

| Sequence | PBM E-score |
| --- | --- |
| AGTGACAG | 0.125 |
| GATCAGAA | -0.00776 |
| ACAGCGTA | -0.0185 |
| GAAGGACA | 0.0876 |
| ACTCTACG | -0.153 |
| AGTTTCTC | -0.0704 |
| AAATGTAA | 0.198 |
| GGCCTGAA | -0.154 |
| GGAAACCA | -0.134 |
| ACTTGTCG | -0.117 |
| CAATCAAC | 0.228 |
| CCGCTTGA | -0.129 |
| ACCCGACC | -0.0137 |
| GATCGACC | 0.144 |
| TAGGGCAA | -0.0815 |
| CAGTCATA | -0.182 |
| ATAATGTA | 0.0394 |
| CAGTGTTA | 0.217 |
| AACAGGCG | -0.0911 |
| GCGTGGCA | -0.0481 |
| CATGGACA | -0.099 |
| CAGCTATG | -0.0983 |
| ATGTTTTC | 0.268 |
| ATCAAATA | 0.0718 |
| GATGTGCA | -0.0123 |

| Sequence | PBM E-score |
| --- | --- |
| ATGGTTGC | -0.135 |
| ATGACGTA | 0.0816 |
| CAAGAACG | 0.04 |
| CACCCAGA | 0.0357 |
| CCTTGTTC | -0.0936 |
| CATTGGCG | -0.126 |
| ATAGTGAC | 0.0959 |
| ATCCTAAT | 0.119 |
| ATCATCTA | 0.0234 |
| ACCCAGCA | -0.197 |
| ATTCTAGG | 0.0386 |
| AGGAACAG | -0.146 |
| CTACAGAC | -0.177 |
| GCAGCGAA | 0.0425 |
| AGGGACGG | -0.347 |
| GGAGACAC | 0.00254 |
| CACTATAC | 0.136 |
| AATGTGTA | -0.00139 |
| TATCGCAA | 0.22 |
| CAGAAGCC | -0.093 |
| GAGTGAAC | -0.0404 |
| CGCCGCGC | 0.00596 |
| CGCTACAC | -0.136 |
| ACTTAACA | 0.0611 |
| ACAAAGCA | 0.142 |

In a second layout: results already given
Sequence,PBM E-score
CAAGAACG,0.04
CACCCAGA,0.0357

Exported as tab-separated lines: entries from further up
Sequence	PBM E-score
GGAGACAC	0.00254
CACTATAC	0.136

Additional results:

| Sequence | PBM E-score |
| --- | --- |
| AGCTCACG | -0.0493 |
| ATCGTAAT | 0.202 |
| CCATTCAA | 0.0769 |
| AGCTAATG | 0.00261 |
| CGAGACAA | -0.0822 |
| ATACCTGC | -0.104 |
| GCAGCGCA | -0.0325 |
| CTTTATCA | 0.0755 |
| CAAACAAG | 0.0295 |
| GCATCTCA | -0.147 |
| AAACGCCC | -0.0692 |
| ATGCATCA | 0.308 |
| CACAACTC | 0.025 |
| ATACAAGG | -0.00434 |
| AGCCAGCG | -0.102 |
| CGGAGTGA | -0.0795 |
| ACTCTCCT | -0.214 |
| CAAAGGGG | -0.147 |
| AGATTCAG | -0.0525 |
| CCTAGGCC | -0.215 |
| GCCGACGC | 0.0286 |
| AATGTCAG | 0.0422 |
| CAAAGATC | 0.0193 |
| ACTCTCTA | -0.108 |
| GACGACAC | 0.056 |

| Sequence | PBM E-score |
| --- | --- |
| CAGATGAA | 0.049 |
| AACAGCCG | -0.169 |
| ACCGGCAA | 0.0725 |
| AGTTTACC | -0.0644 |
| ACAGCATA | 0.151 |
| ACTGTGAA | 0.0448 |
| CAAGGCGA | -0.145 |
| CACTTGCA | 0.108 |
| GGTGAGAA | -0.0815 |
| ACTCGATC | 0.0397 |
| CAGTTACG | -0.142 |
| TCCAGAAA | -0.125 |
| ATGCTATC | 0.00232 |
| CTAAGTGA | 0.146 |
| CTCCGGAG | -0.105 |
| TTACATAA | 0.438 |
| CACCCTTC | -0.0857 |
| TCCGCGGA | 0.311 |
| CAACAAAA | 0.0393 |
| ACATTGAG | -0.151 |
| GACTTAGA | -0.122 |
| CCCGTAAC | -0.0496 |
| TGAGGCAA | 0.0278 |
| AGGAAACG | 0.0331 |
| ACGGTCAG | -0.157 |

| Sequence | PBM E-score |
| --- | --- |
| ACTCTATG | -0.217 |
| GCATACGC | -0.0165 |
| AGTCAAAT | 0.103 |
| ATGATAGG | 0.0278 |
| AGGGTCCA | -0.264 |
| AGCAGTAA | 0.029 |
| AGGGGCGA | -0.253 |
| TTATTCAA | 0.252 |
| GTGGTTTA | 0.0435 |
| CAGAGCGA | 0.083 |
| CCTCGCAA | -0.259 |
| ACATCTAA | -0.0207 |
| GCGCGCCA | 0.206 |
| AACCCTCG | -0.0276 |
| CTCCCGCC | -0.163 |
| AGCAGAGG | -0.0826 |
| ACGTTCTC | 0.0667 |
| CGACCCAA | 0.0259 |
| GAATTGTC | -0.014 |
| ATCTGAGG | 0.0679 |
| GGGGAACA | -0.216 |
| CGCTTCAC | 0.00567 |
| AGAGTAGG | -0.0216 |
| ACTCTTGC | 0.0522 |
| ATACCCGA | -0.0679 |

| Sequence | PBM E-score |
| --- | --- |
| GTGGCCGA | -0.0995 |
| AAACTGAG | -0.0916 |
| AACGATCA | -0.0458 |
| CAGTTAGC | -0.27 |
| CACTCAGA | 0.0813 |
| GTGGATTA | 0.14 |
| AGCAGGAC | 0.0392 |
| CCCCTGAC | 0.00332 |
| AGTATTTC | 0.14 |
| GATTCTCC | 0.0061 |
| ATGACCGG | -0.187 |
| TATGTGGA | 0.146 |
| ACTCGAGC | 0.0433 |
| TAGGAGAA | -0.242 |
| AAATCGGT | -0.00957 |
| AAACTCGT | 0.172 |
| CCCTTCAA | -0.201 |
| ACAGGGGC | -0.0756 |
| AAGACAGT | 0.0547 |
| AGTAGAAG | -0.194 |
| CAGTGGTA | -0.0283 |
| CCCCGAAC | -0.119 |
| AGCTAGGA | -0.126 |
| AACAGACT | 0.0773 |
| GCACCCAC | 0.0949 |

| Sequence | PBM E-score |
| --- | --- |
| AATCTGGG | -0.106 |
| ATAAGCGG | 0.0934 |
| AAGGGGAA | -0.222 |
| CCCGTACC | -0.113 |
| ACTAGGAT | -0.0418 |
| AGTTGCCA | 0.0449 |
| ACCATCCC | -0.0594 |
| CTTCCCTA | -0.158 |
| ACTCCAAA | -0.141 |
| CTGGTAAC | 0.0655 |
| CCTGTCGA | -0.00186 |
| CACAGGGG | -0.23 |
| CACTGTGC | 0.17 |
| AATGACGG | -0.0377 |
| AAAATGAG | 0.0365 |
| TGCGAACA | 0.0917 |
| GGGGAAGA | -0.245 |
| ATCGCTAG | 0.0309 |
| AGCCGCTC | 0.00238 |
| ATATGCGG | 0.0542 |
| CTCCTCGC | -0.135 |
| AGATCCCT | -0.312 |
| AACTCTAG | -0.155 |
| AGGTCGGC | -0.159 |
| CAAGTACC | -0.138 |

| Sequence | PBM E-score |
| --- | --- |
| AGCGCCAT | -0.118 |
| ACGGAGTG | 0.114 |
| ACCCGTGA | -0.116 |
| CACCTTCA | -0.0601 |
| AGCCGCTG | -0.0754 |
| AAGGAGGT | -0.0875 |
| GGGACCCC | -0.259 |
| ACCACACC | -0.169 |
| CTGCTAAC | -0.0938 |
| CAGAAACG | 0.0935 |
| GCGTCACC | -0.072 |
| CTGAAATA | 0.00755 |
| AACCTTCC | -0.131 |
| ATCGAAAA | 0.0997 |
| CGGGCGCA | 0.045 |
| GATGAAAC | -0.0377 |
| AAAGTTTA | 0.179 |
| TAATTACA | 0.265 |
| AAACATGC | 0.0769 |
